Experimental data: patent US20220079972
The exact form of at least one protein or probe is not confirmed. Where cells or extracts were used, other partners may take part. A negative result means that nothing was seen under these conditions.

Protein sequences, listed by entry. Tags and fused reporters are not part of them. Residues count along the entry.
UniProt P61244, 2-160: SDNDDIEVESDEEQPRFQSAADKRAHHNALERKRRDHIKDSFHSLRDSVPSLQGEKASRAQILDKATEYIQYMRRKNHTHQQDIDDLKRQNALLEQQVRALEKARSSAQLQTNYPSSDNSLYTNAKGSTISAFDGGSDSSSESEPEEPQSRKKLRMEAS

Target: MAX (UniProt P61244)
Experiment: pull-down
Conditions: protein in cells
[1] = RIP RT-PCR, only F1 reported as specifically bound, protein details: endogenous in ARPE-19 cells, variant of lncEGFL7OS

| Sequence | binding result [1] | other results |
| --- | --- | --- |
| AACUCGCAGCUACCUGAGUCAGACCUGUGCUUUUUCACCUCUACGGAAGAUGUCAGAGCGUUUCCCUAGCAAUGUUUUAGAAGUUACUUCUGUCUGGAAAAAAAUGGAAAAAAUGGCAAAUUAUGUUAUGUAUAAUUUGAUAAUUUUAAAGAAUUAAUGAUGUAAUUAUUACUCAAACCCA [lncEGFL7OS F3 (377-557)] | no binding | – |
| AUGGCGUGUGAGUGCAUGGCGAGCGCCUCCAGGACACACUUACUGUUCCCUUGCUCUGGCCAGACGCCAGCCGGACCCUGUGUGUGCGCGCCGUGCUGCUCUUUGCAGCUGCCUGCAAGGGGUUCCUGCGAAGACCAGCACCUUGGGGAAGAGCCUGCGGCUGAACUUGAACUCGCAGCUACCUGA [lncEGFL7OS F2 (208-393)] | no binding | – |
| UGGGCUCAGGCCCAGAGUGCCAGCUUUGCCCUAUCCCAUAGCCUGGAGCCACCACAGGAGGGGCACUCCACUCUCUUGGGCUCCUGGAGCCUCAGAGGCAGAGCCAGCCGGGAGUGCAGGAGGGAGAACUUUCCUGUGGACGUCCUGUGUUCUCCAGACGCAGAGAACCCUCAUCAACCGAGGGGGAGGUCACUUCCGAAUCCACAGAUGGCGUGUGAGUGCAUGGCGAGCGCCUCCAG [lncEGFL7OS F1 (1-239)] | – | binding result (RIP RT-PCR in transfected ARPE-19, major MAX-binding domain, protein details: endogenous in ARPE-19 cells, variant of lncEGFL7OS): binds |
| UGGGCUCAGGCCCAGAGUGCCAGCUUUGCCCUAUCCCAUAGCCUGGAGCCACCACAGGAGGGGCACUCCACUCUCUUGGGCUCCUGGAGCCUCAGAGGCAGAGCCAGCCGGGAGUGCAGGAGGGAGAACUUUCCUGUGGACGUCCUGUGUUCUCCAGACGCAGAGAACCCUCAUCAACCGAGGGGGAGGUCACUUCCGAAUCCACAGAUGGCGUGUGAGUGCAUGGCGAGCGCCUCCAGGACACACUUACUGUUCCCUUGCUCUGGCCAGACGCCAGCCGGACCCUGUGUGUGCGCGCCGUGCUGCUCUUUGCAGCUGCCUGCAAGGGGUUCCUGCGAAGACCAGCACCUUGGGGAAGAGCCUGCGGCUGAACUUGAACUCGCAGCUACCUGAGUCAGACCUGUGCUUUUUCACCUCUACGGAAGAUGUCAGAGCGUUUCCCUAGCAAUGUUUUAGAAGUUACUUCUGUCUGGAAAAAAAUGGAAAAAAUGGCAAAUUAUGUUAUGUAUAAUUUGAUAAUUUUAAAGAAUUAAUGAUGUAAUUAUUACUCAAACCCA [lncEGFL7OS] | – | binding result (RIP-PCR in HUVEC nuclear lysate, increased by lncEGFL7OS overexpression, protein details: endogenous, antibody Santa Cruz sc-197): binds |
